Reference: the supplement of paper PMC7666118
Some of the results follow.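 Rule for the calls: active = dose-dependent thermal stabilisation significant by F-test of dose-response against flat model at 10% FDR; inactive = not significant.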

Amino acid sequences for entries named in this document (tags omitted). A change or cut given only in a name is not applied to a line headed by its entry.
UniProt Q9BYJ9: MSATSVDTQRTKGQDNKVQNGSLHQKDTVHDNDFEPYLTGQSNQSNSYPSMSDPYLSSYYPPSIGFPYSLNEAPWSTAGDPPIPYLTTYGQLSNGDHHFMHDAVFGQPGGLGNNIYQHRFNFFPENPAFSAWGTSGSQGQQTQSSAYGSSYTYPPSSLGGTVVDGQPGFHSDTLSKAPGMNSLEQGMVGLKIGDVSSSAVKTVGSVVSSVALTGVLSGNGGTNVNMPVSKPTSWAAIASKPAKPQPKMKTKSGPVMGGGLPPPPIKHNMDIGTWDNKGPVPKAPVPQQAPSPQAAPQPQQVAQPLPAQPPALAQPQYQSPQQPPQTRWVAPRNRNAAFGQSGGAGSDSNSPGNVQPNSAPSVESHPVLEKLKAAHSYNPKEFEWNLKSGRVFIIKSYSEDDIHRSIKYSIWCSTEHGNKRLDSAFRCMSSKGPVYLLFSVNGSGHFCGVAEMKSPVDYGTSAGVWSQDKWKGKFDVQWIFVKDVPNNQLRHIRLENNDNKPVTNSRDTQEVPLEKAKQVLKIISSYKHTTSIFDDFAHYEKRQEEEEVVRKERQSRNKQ
UniProt Q04323: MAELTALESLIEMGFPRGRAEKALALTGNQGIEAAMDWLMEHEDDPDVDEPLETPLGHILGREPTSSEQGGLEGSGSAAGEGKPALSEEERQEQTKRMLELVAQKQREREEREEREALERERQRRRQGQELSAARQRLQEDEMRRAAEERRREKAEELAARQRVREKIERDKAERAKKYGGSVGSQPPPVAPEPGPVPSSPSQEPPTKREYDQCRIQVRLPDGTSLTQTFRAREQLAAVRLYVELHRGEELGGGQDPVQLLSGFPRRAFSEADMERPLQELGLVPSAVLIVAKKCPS
UniProt Q8NEZ2: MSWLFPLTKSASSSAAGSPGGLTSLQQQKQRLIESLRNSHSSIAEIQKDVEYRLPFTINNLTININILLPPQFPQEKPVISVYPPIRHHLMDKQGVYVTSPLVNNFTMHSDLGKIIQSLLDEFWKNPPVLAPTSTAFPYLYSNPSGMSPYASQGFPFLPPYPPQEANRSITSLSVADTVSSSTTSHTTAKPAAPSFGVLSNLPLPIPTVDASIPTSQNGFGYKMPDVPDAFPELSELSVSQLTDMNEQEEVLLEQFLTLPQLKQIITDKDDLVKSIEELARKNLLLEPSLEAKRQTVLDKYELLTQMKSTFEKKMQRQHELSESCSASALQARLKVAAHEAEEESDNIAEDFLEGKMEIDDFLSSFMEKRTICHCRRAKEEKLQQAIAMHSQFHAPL
UniProt Q9NYU2: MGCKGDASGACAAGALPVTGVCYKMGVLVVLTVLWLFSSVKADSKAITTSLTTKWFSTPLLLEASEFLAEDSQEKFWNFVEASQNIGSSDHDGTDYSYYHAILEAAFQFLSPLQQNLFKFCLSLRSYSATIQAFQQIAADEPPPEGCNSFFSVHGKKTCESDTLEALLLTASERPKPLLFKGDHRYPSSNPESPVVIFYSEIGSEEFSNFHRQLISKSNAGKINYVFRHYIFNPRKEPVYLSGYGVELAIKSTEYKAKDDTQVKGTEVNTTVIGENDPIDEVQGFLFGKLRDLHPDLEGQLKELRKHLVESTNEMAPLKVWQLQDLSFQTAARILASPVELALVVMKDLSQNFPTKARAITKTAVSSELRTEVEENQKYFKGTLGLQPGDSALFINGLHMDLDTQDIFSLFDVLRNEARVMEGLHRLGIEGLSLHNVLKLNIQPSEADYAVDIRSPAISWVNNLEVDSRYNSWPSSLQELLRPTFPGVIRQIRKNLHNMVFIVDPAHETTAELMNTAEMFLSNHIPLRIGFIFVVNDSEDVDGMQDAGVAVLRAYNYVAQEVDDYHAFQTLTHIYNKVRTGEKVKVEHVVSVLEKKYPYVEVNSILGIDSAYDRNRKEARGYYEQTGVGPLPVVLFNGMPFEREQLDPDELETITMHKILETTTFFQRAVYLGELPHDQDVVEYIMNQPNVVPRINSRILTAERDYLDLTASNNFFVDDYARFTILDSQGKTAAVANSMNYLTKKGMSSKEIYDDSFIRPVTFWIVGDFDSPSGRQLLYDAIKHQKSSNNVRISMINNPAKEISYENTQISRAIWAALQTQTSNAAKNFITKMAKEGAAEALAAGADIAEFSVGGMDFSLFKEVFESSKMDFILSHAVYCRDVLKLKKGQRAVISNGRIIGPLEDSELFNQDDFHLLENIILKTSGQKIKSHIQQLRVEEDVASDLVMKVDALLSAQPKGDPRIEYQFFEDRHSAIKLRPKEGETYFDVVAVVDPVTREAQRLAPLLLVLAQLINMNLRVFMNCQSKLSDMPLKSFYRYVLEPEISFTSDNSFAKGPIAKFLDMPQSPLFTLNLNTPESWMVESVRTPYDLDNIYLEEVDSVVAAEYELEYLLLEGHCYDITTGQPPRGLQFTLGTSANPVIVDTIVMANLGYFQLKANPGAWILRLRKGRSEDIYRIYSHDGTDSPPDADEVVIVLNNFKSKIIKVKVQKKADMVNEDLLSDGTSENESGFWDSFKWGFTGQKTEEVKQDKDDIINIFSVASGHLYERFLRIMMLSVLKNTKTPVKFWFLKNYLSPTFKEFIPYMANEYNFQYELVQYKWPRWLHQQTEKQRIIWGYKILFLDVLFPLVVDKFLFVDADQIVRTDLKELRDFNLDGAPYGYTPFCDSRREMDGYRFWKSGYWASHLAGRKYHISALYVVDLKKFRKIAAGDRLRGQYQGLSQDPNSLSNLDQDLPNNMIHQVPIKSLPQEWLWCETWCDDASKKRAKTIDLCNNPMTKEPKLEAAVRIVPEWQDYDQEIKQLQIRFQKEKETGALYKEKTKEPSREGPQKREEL
UniProt Q9UK41: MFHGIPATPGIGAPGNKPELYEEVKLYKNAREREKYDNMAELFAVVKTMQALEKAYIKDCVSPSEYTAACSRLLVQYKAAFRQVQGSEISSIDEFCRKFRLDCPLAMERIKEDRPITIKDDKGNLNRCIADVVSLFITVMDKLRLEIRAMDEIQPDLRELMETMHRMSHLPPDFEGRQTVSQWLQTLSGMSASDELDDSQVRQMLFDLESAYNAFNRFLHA
UniProt Q92890: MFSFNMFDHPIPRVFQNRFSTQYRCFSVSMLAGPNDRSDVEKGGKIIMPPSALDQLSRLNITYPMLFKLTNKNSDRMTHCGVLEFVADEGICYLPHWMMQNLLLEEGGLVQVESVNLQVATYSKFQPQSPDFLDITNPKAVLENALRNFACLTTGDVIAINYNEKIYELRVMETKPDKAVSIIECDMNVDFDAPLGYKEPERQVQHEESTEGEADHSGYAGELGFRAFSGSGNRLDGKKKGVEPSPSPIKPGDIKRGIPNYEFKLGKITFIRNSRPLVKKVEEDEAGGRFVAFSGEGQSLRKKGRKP
UniProt Q7Z5K2: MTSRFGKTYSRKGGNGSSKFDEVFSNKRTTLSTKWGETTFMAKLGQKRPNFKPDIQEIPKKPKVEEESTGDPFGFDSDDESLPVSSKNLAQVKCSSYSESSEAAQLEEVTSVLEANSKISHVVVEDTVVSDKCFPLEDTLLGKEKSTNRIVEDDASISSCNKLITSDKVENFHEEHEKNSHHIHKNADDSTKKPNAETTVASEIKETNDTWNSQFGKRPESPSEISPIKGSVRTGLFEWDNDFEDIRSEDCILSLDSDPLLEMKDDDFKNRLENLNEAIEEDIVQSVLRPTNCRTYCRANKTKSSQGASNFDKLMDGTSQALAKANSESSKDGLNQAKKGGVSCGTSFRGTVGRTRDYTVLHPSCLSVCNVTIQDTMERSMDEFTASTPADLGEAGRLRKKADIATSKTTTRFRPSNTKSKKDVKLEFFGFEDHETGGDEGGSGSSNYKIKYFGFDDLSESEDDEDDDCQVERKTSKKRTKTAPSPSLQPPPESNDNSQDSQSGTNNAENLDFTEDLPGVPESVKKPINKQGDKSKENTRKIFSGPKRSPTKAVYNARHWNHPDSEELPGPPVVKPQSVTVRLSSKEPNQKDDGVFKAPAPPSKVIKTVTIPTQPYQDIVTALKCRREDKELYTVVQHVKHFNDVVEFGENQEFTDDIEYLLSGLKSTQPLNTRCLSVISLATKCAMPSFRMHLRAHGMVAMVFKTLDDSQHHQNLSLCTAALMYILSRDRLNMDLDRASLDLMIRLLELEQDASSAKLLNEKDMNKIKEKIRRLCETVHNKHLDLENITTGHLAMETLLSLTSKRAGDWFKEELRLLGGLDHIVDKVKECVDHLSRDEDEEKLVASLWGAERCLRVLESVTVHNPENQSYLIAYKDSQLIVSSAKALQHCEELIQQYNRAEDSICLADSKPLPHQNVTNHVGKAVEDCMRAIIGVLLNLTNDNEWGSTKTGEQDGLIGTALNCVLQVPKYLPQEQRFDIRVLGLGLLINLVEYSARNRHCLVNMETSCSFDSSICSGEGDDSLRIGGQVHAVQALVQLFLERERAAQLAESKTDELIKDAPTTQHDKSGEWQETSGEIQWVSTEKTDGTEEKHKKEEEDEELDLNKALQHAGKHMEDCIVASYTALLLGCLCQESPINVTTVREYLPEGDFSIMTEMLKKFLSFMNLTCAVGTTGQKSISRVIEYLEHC
UniProt P08670, whole entry: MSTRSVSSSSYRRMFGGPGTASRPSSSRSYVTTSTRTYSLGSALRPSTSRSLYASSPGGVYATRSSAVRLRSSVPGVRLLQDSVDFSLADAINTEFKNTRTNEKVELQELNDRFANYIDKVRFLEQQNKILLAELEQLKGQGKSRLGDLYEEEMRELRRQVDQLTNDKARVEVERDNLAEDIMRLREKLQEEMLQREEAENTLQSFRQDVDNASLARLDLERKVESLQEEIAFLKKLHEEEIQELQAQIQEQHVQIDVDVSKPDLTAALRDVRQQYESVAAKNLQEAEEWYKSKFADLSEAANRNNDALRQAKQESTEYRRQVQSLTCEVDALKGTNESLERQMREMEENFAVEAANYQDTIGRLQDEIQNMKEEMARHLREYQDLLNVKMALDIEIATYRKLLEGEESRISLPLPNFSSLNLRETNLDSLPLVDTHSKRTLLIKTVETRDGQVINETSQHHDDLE
UniProt O43592: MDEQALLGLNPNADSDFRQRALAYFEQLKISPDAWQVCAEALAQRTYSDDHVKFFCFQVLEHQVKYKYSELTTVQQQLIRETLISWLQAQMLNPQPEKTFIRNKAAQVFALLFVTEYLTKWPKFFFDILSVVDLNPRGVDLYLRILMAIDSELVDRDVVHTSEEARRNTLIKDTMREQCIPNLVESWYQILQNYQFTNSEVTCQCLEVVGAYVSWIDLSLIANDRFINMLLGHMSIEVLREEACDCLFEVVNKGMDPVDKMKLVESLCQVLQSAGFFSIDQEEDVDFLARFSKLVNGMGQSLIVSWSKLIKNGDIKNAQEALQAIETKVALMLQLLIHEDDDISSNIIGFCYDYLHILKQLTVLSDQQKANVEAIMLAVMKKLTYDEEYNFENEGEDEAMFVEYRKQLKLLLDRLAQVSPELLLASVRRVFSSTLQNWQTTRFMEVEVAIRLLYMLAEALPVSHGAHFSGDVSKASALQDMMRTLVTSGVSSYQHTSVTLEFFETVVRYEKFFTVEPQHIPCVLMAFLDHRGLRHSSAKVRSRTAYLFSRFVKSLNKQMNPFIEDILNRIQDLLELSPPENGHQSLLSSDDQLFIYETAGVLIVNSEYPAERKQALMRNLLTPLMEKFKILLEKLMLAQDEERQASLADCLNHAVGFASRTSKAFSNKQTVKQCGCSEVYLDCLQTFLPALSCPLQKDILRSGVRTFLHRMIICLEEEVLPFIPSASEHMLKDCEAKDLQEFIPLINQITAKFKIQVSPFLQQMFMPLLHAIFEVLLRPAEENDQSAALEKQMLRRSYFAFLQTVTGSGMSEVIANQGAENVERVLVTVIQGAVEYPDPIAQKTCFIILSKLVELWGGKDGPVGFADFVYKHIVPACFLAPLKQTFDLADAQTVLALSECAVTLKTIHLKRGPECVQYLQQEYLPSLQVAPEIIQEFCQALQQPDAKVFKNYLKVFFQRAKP
UniProt P43403: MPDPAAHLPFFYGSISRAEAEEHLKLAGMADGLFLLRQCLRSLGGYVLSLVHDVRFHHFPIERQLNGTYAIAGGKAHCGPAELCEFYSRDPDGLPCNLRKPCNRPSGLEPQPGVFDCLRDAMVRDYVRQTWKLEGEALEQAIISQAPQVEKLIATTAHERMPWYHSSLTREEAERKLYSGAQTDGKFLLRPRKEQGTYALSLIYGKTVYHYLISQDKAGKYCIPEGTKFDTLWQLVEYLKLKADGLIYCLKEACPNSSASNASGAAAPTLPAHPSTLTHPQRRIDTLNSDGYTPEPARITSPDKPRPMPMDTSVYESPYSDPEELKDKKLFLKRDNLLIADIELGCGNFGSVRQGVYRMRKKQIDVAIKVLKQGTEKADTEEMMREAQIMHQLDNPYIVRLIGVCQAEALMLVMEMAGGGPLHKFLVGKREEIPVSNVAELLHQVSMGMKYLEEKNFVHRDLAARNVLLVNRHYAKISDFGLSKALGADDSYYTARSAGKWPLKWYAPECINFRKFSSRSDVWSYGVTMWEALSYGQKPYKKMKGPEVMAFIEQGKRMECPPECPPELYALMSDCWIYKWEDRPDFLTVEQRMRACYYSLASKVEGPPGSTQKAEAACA

Compound: Nc1nc2c(ncn2[C@@H]2O[C@H](COP(=O)(O)OP(=O)(O)OP(=O)(O)O)[C@@H](O)[C@H]2O)c(=O)[nH]1
Test: dose-dependent thermal stabilisation call (2D-TPP, DLPTP, 10% FDR) (binary (1 = stabilised)); higher = stabilised by the compound
Conditions: system: Jurkat gel-filtered lysate; concentration range 1-500 µM

| Target | dose-dependent thermal stabilisation call |
| --- | --- |
| UHRF1BP1L (UniProt A0JNW5) | inactive: 0 |
| YTHDF1 (UniProt Q9BYJ9) | inactive: 0 |
| YWHAQ (UniProt P27348) | inactive: 0 |
| UBXN1 (UniProt Q04323) | inactive: 0 |
| WDR47 (UniProt O94967) | inactive: 0 |
| VWA8 (UniProt A3KMH1) | active: 1 |
| UCK1 (UniProt Q9HA47) | active: 1 |
| WAC (UniProt Q9BTA9) | inactive: 0 |
| UBL7 (UniProt Q96S82) | inactive: 0 |
| UBE2D3 (UniProt P61077) | inactive: 0 |
| ZBTB1 (UniProt Q9Y2K1) | inactive: 0 |
| XRCC1 (UniProt P18887) | inactive: 0 |
| ZC3HAV1 (UniProt Q7Z2W4) | inactive: 0 |
| WDR91 (UniProt A4D1P6) | inactive: 0 |
| YWHAE (UniProt P62258) | inactive: 0 |
| VPS37A (UniProt Q8NEZ2) | inactive: 0 |
| YLPM1 (UniProt P49750) | inactive: 0 |
| UBE2N (UniProt P61088) | inactive: 0 |

| Target | dose-dependent thermal stabilisation call |
| --- | --- |
| ZC2HC1A (UniProt Q96GY0) | inactive: 0 |
| UPF2 (UniProt Q9HAU5) | inactive: 0 |
| YEATS4 (UniProt O95619) | inactive: 0 |
| USP10 (UniProt Q14694) | inactive: 0 |
| WDR5 (UniProt P61964) | inactive: 0 |
| UGGT1 (UniProt Q9NYU2) | inactive: 0 |
| VPS28 (UniProt Q9UK41) | inactive: 0 |
| UFD1 (UniProt Q92890) | inactive: 0 |
| UTP3 (UniProt Q9NQZ2) | inactive: 0 |
| WAPL (UniProt Q7Z5K2) | inactive: 0 |
| VIM (UniProt P08670) | inactive: 0 |
| WDR43 (UniProt Q15061) | inactive: 0 |
| UBE2I (UniProt P63279) | inactive: 0 |
| UBL4A (UniProt P11441) | inactive: 0 |
| VIPAS39 (UniProt Q9H9C1) | inactive: 0 |
| XPOT (UniProt O43592) | inactive: 0 |
| ZAP70 (UniProt P43403) | active: 1 |
| WASHC3 (UniProt Q9Y3C0) | inactive: 0 |

Two records picked at random from the list so far, as already listed:

| Target | dose-dependent thermal stabilisation call |
| --- | --- |
| ZBTB1 (UniProt Q9Y2K1) | inactive: 0 |
| WDR43 (UniProt Q15061) | inactive: 0 |
